# According to US20160051536A1, “COMPOSITIONS TO ALLEVIATE PRESYSTEMIC METABOLISM OF OPIOIDS” (VIRGINIA COMMONWEALTH UNIVERSITY, priority 2013, published 2016):
# For at least one compound, name, drawing or mass did not settle the structure.
# Test system: UGT
# Test: Effect of inhibitors on buprenorphine-glucuronide formation in LS180 cells
# Settings: buprenorphine 10 μM, inhibitor 100 μM, 2 hours, vs control, p<0.05, n.d. = glucuronide not detected
row,SMILES,formation of buprenorphine glucuronide
1,OC[C@H]1O[C@@H](Oc2cc3c(O)cc(O)cc3[o+]c2-c2ccc(O)c(O)c2)[C@H](O)[C@@H](O)[C@@H]1O [cyanidin-3-glucoside],did not have a significant effect
2,COc1cc(/C=C/c2ccc(O)cc2)cc(OC)c1 [pterostilbene],not detected
